Library screening results

Source: ChEMBL document CHEMBL3988442, “University of Dundee, Small-Polar-MMV Screening Library” (2021).

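Whole-cell assay for inhibitors of Mycobacterium tuberculosis growth, labelled Cornell in the record; the read-out is not stated. The concentration is filed as 10 mM, unlikely as a test dose, so the dose is not known. The record gives no direction; compounds strong in two other growth screens of this library score well above the rest, so higher reads as stronger inhibition. Of about 53,000 compounds tested this way, about 900 (1.7%) reached 50% or more in at least one test.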

The filed quantity is “Percent Effect” (%).
The controls that fix the scale are not given in the record; negative values are as filed.
The compounds are a random part of those screened.

| Compound | effect |
|---|---|
| `O=C(NCC1CC1)C1CCC2(CCN(C(=O)c3ccco3)CC2)O1` (stereo not drawn) | 13.61% |
| `[H][C@]12C[C@H](NC(=O)c3cc[nH]n3)[C@@]1([H])CN(S(=O)(=O)c1ccc(C)cc1)C2` | -26.26% |
| `Cc1ncc(C(=O)N2CCOC(C(=O)N3CCCCC3)C2)c(C)n1` (stereo not drawn) | 43.28% |
| `CCC(=O)Nc1ccc2c(ccn2CCOC)c1` | -25.75% |
| `CCn1ncc2c1CCCC2NCc1cc(Cl)c(OC)c(OC)c1` (stereo not drawn) | -4.43% |
| `Cn1cc(C(=O)Nc2ccc(CC(=O)NC3CC3)cc2)nn1` | -45.76% |
| `CCc1cnc(CNC(=O)NC2CCN(C3CCCC3)CC2)s1` | -11.46% |
| `[H][C@]12CC(COCc3cccnc3)C[C@]1([H])N(Cc1cccnc1)CCO2` (stereo partly drawn) | -1.375% |
| `Cc1noc(C)c1CNC(=O)N(C1CC1)C(C)c1ccco1` (stereo not drawn) | 6.341% |
| `C[C@@H]1CN(c2ccc3c(Cl)ccnc3c2F)CC(C(N)=O)O1` (stereo partly drawn) | 5.032% |
| `CC(Oc1ccc2c(c1)OCO2)C(=O)Nc1ccon1` (stereo not drawn) | -3.321% |
| `CC(C)CC(=O)NS(=O)(=O)c1ccc(C#N)cc1C(F)(F)F` | 15.54% |
| `CS(=O)(=O)c1snnc1C1CCCN(Cc2ccncc2)C1` (stereo not drawn) | 18.09% |
| `O=C(CCc1ccc(F)cc1)NS(=O)(=O)c1ccc2c(c1)OCCCO2` | -9.037% |
| `CCc1ncc(C(=O)N2CC(Oc3ccccc3Cl)C2)cn1` | 22.47% |
| `Cl.O=C(c1ccccc1)N1CCC2(CC1)CNc1c(F)cccc12` | 30.78% |
| `CC1CCCN(C(=O)Nc2cccc(CN3CCOC3=O)c2)C1` (stereo not drawn) | -20.4% |
| `O=c1[nH]nc(CNCc2ccc(OC34CCCN(CC3)C4)cc2)[nH]1` (stereo not drawn) | 18.33% |
| `Cc1nn(C)c(C)c1C1COCCN1C(=O)NC1CC1` (stereo not drawn) | -17.86% |
| `CCNC(=O)[C@@H]1C[C@@H](NC(=O)Cc2ccncc2)CN1Cc1ccsc1` | 31.97% |
| `[H][C@]12CC[C@]([H])(CN(Cc3ccncc3)C1)N(C(=O)CSc1ncccn1)C2` | -24.46% |
| `Cc1nccc(-c2cccc(-c3ccn(CC4CCNC4)n3)c2)n1` (stereo not drawn) | 2.617% |
| `CCc1nc(C)sc1CN1CC[C@@](O)(C2CCOCC2)[C@H](C)C1` | 1.105% |
| `O=C(O)C(F)(F)F.O=C(O)C(F)(F)F.[H][C@@]12COC[C@]1(CNS(C)(=O)=O)CN(Cc1cccnc1OC)C2` | -5.024% |
| `CNc1cc(C)nc(C2COCCN2CCc2ccccc2)n1` (stereo not drawn) | 15.42% |
| `[H][C@@]12COC[C@H](C(=O)N3CCCO3)[C@]1([H])CN(Cc1ccco1)C2` | 21.07% |
| `CC(C)CCn1ccc(NC2CCSC2)n1` (stereo not drawn) | -3.445% |
| `COc1nc2c(cc1C(=O)N1CCCOC(CN3CCCC3)C1)CCC2` (stereo not drawn) | 22.25% |
| `CC(C)c1nc(C2CCCN(C(=O)CCn3ccnc3)C2)no1` (stereo not drawn) | -2.662% |
| `Cc1ccc(CN2Cc3nccn3CC(Cn3cncn3)C2)s1.O=C(O)C(F)(F)F` (stereo not drawn) | 15.43% |
| `COCC1CN(C(=O)c2cccn2C)Cc2cnn(C)c21` (stereo not drawn) | 20.88% |
| `Cc1cccc(CC(=O)NCCCOC(C)C)c1` | 13.33% |
| `Cc1nc(CN(C)c2cc(N3CCCC3CO)ncn2)cs1` (stereo not drawn) | -12.62% |
| `CNc1cncc(C2CCCN2c2cc(C)ncn2)n1` (stereo not drawn) | -53.23% |
| `CN(C)C(=O)CN1CCC2(CCN(Cc3nccs3)CC2)C1=O.O=C(O)C(F)(F)F` | -9.813% |
| `Cc1ccc2c(c1)c(CNC(=O)C1CCN(CC(N)=O)CC1)nn2C` | -11.54% |
| `Cc1ncsc1C(=O)NC1CCN(CC(=O)N(C)c2ccccc2)CC1` | 17.23% |
| `CCn1c(C)cc(C(=O)N2CCC(Nc3cccnn3)CC2)c1C` | 7.118% |
| `Cc1cc(C2CCC2)nc(N2CCC3(CCNC(=O)CC3)CC2)n1` | 19.37% |
| `Cc1n[nH]c(C)c1NC(=O)NCc1ccccn1` | -14.3% |
| `Cl.Cl.Cl.O[C@@H]1C[C@@](CNCc2ccccn2)(COc2cccnc2)C[C@@H]1O` | -4.524% |
| `CC(C)C(=O)N1CCC(c2nc(O)cc(-c3ccncc3)n2)CC1` | 7.512% |
| `O=C(O)C(F)(F)F.O=C(O)C(F)(F)F.[H][C@@]12COC[C@H](C(=O)NCc3ccccn3)[C@]1([H])CN(C1CCCC1)C2` | -32.82% |
| `CCc1ncc2c(n1)CN(C(=O)c1c(C)[nH]c3c1C(=O)CCC3)C2` | 5.201% |
| `CC(=O)NC[C@H]1OC[C@@H](NC2CCC(F)(F)CC2)[C@@H]1O` | 14.56% |
| `Cc1ccc([C@H]2CN(C(C)C)C[C@@H]2NS(=O)(=O)N2CCOCC2)o1` | 24.67% |
| `O=C(CC1CN(Cc2ccccc2)CCO1)NC1CCCC1` (stereo not drawn) | 6.727% |
| `Cc1cc(CN2CCc3nc(N4CCOCC4)nc(O)c3CC2)c(C)s1` | -6.171% |
| `Cc1cccc(Nc2cccc(C3CCCN(Cc4ncc[nH]4)C3)n2)n1` (stereo not drawn) | 7.705% |
| `COc1c(CNC2CCOc3c(Cl)cccc32)c(C)nn1C.Cl` (stereo not drawn) | 7.28% |
| `CN1CCN(c2ccccc2CNC(=O)Cc2ccccc2F)CC1` | -23.87% |
| `CCOC(C)c1nccn1Cc1noc(CC)n1` (stereo not drawn) | -1.231% |
| `O=C(O)C(F)(F)F.[H][C@@]12CN(CC3CCOC3)CCC[C@]1(C(=O)O)CN(c1ncccn1)C2` (stereo partly drawn) | 11.04% |
| `O=C(c1cc[nH]n1)N1CCc2ncnc(NCc3ccccn3)c2CC1` | 8.686% |
| `CC(Cc1c(F)cccc1F)NC(=O)CN(CC(N)=O)C(C)C` (stereo not drawn) | 15.47% |
| `Fc1cccc(-c2nnn3c2COC(CNc2ncccn2)C3)c1` (stereo not drawn) | -21.81% |
| `NCC1Cc2cc(-c3cncc(C(=O)N4CCOCC4)n3)cc(Cl)c2O1` (stereo not drawn) | 3.884% |
| `COCCN1CCC(Cc2cnc(-c3ccccc3C(=O)O)cn2)CC1` | -34.65% |
| `Cc1nnc(SCc2cccc(F)c2)n1CC(N)=O` | 10.7% |
| `COCc1ccc(CNc2cnn(C(C)(C)C)c(=O)c2Cl)cc1` | 55.73% |
| `CCCC(=O)N1CCN(CCN(C)C)c2nc(C)ccc2C1.O=C(O)C(F)(F)F.O=C(O)C(F)(F)F` | 13.06% |
| `Cc1ccc(C(=O)N2CCN(C(=O)C(C)n3ccnc3)CC2)cc1F` (stereo not drawn) | 2.138% |
| `CCOc1ccc(Cl)c(C(=O)N2CCN(CCO)CC2)n1` | 5.502% |
| `[H][C@]12C[C@H](NC(=O)C(C)C)[C@@]1([H])CN(S(=O)(=O)c1ccc(C)cc1)C2` | -49.2% |
| `N#Cc1c(N)nc2c(c1C1CCOC1)CCc1cc(O)ccc1-2` (stereo not drawn) | -25.58% |
| `Cc1nn(CCC(=O)NC2CCS(=O)(=O)C2)c(C)c1Br` (stereo not drawn) | 12.82% |
| `Cc1nc(C2CCCN(C(=O)c3csc(C)n3)C2)no1` (stereo not drawn) | 25.96% |
| `N#CC1(NC(=O)c2ccc(F)c(Br)c2)CCSC1` (stereo not drawn) | 21.87% |
| `COCCN(C)c1ccc(NCc2ccsc2)nc1` | 36.08% |
| `CCc1nnsc1-c1nc(C(C)C)nn1-c1ccc2c(c1)OCO2` | 19.27% |
| `CCOc1ncccc1NC(=O)NC1CCN(S(C)(=O)=O)CC1` | -1.509% |
| `COc1ccc(OCCN2CCOCS2(=O)=O)cc1` | 4.471% |

For reference, 8 entries once more:

Compound	effect
Cc1cccc(Nc2cccc(C3CCCN(Cc4ncc[nH]4)C3)n2)n1 (stereo not drawn)	7.705%
CCc1ncc(C(=O)N2CC(Oc3ccccc3Cl)C2)cn1	22.47%
O=c1[nH]nc(CNCc2ccc(OC34CCCN(CC3)C4)cc2)[nH]1 (stereo not drawn)	18.33%
Cc1nccc(-c2cccc(-c3ccn(CC4CCNC4)n3)c2)n1 (stereo not drawn)	2.617%
COc1c(CNC2CCOc3c(Cl)cccc32)c(C)nn1C.Cl (stereo not drawn)	7.28%
O=C(CCc1ccc(F)cc1)NS(=O)(=O)c1ccc2c(c1)OCCCO2	-9.037%
[H][C@]12C[C@H](NC(=O)C(C)C)[C@@]1([H])CN(S(=O)(=O)c1ccc(C)cc1)C2	-49.2%
O=C(NCC1CC1)C1CCC2(CCN(C(=O)c3ccco3)CC2)O1 (stereo not drawn)	13.61%